PubChem BioAssay AID1259254, NCATS | 2017
In all, the deposit lists about 59,000 reagents; below is an unselected part. About 1,550 of them (2.6%) count as active. 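G2 share is only a proxy for re-replication; each gene was hit by three separate siRNAs, and active genes were retested.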 Reagents against one gene are numbered here. Not all columns of the deposit are shown. The record does not give: the amount of reagent.

- Aim: 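Genome-wide screen for genes that prevent DNA re-replication in cancer cells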 (primary screen)
- Cells: human HCT116 colorectal cancer cells
- Knock-down reagent: single siRNA against human genes
- Timing: 3 days
- Measurement: 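Nuclei stained with Hoechst and imaged; cell-cycle phase assigned by DNA content; G2 share scaled per plate, non-targeting siRNA 0%, GMNN siRNA 100%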
- Reading the numbers: G2 robust z-score and G2 cells, % of GMNN control: higher = more G2 cells, more excess DNA replication
- Active means: 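An siRNA counts as active if its G2 robust z-score lies at least 5 MADs above the screen median; here such calls match roughly 38% of GMNN control or more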

Depletion of C1QTNF2 #1 came out at: G2 robust z-score 0.536; G2 cells, % of GMNN control 6.74; inactive. Against C1QTNF2 #2, the entry reads G2 robust z-score 7.41; G2 cells, % of GMNN control 55.1; active. Against C1QTNF2 #3, the values are G2 robust z-score -0.552; G2 cells, % of GMNN control -0.915; inactive. SYDE2 #1 showed G2 robust z-score -0.503; G2 cells, % of GMNN control -0.574; inactive. With knock-down of SYDE2 #2, the screen gave G2 robust z-score -0.806; G2 cells, % of GMNN control -2.71; inactive. Against SYDE2 #3 the deposit lists G2 robust z-score -0.41; G2 cells, % of GMNN control 0.0821; inactive.

DMRTA1 #1 scored G2 robust z-score -0.491; G2 cells, % of GMNN control -0.487; inactive. After knock-down of DMRTA1 #2, the record shows G2 robust z-score -0.554; G2 cells, % of GMNN control -0.933; inactive. For DMRTA1 #3 the deposit lists G2 robust z-score 0.173; G2 cells, % of GMNN control 4.19; inactive. With knock-down of MAPK8IP2 #1 the results were G2 robust z-score -1.05; G2 cells, % of GMNN control -4.4; inactive. MAPK8IP2 #2 showed G2 robust z-score -0.0727; G2 cells, % of GMNN control 2.46; inactive. Against MAPK8IP2 #3 the deposit lists G2 robust z-score 5.31; G2 cells, % of GMNN control 40.3; active.

With knock-down of MCC #1 the results were G2 robust z-score 1.07; G2 cells, % of GMNN control 10.5; inactive. MCC #2 gave G2 robust z-score -0.371; G2 cells, % of GMNN control 0.354; inactive. MCC #3 gave G2 robust z-score -0.445; G2 cells, % of GMNN control -0.161; inactive. After knock-down of MCUB #1 the results were G2 robust z-score 3.93; G2 cells, % of GMNN control 30.6; inactive. Against MCUB #2, the values are G2 robust z-score -0.837; G2 cells, % of GMNN control -2.92; inactive. After knock-down of MCUB #3, the record shows G2 robust z-score -0.498; G2 cells, % of GMNN control -0.536; inactive.

LOC100288254 #1 scored G2 robust z-score -0.574; G2 cells, % of GMNN control -1.07; inactive. For LOC100288254 #2, the entry reads G2 robust z-score 0.153; G2 cells, % of GMNN control 4.04; inactive. Silencing of LOC100288254 #3 resulted in: G2 robust z-score 0.00978; G2 cells, % of GMNN control 3.04; inactive. BBS12 #1 showed G2 robust z-score 0.00856; G2 cells, % of GMNN control 3.03; inactive. After knock-down of BBS12 #2, the record shows G2 robust z-score -0.569; G2 cells, % of GMNN control -1.04; inactive. For BBS12 #3, the entry reads G2 robust z-score -0.547; G2 cells, % of GMNN control -0.88; inactive.

Entries listed above with an active call, once more:
C1QTNF2 #2 | G2 robust z-score = 7.41; G2 cells, % of GMNN control = 55.1; outcome = active
MAPK8IP2 #3 | G2 robust z-score = 5.31; G2 cells, % of GMNN control = 40.3; outcome = active
